Results as given in the supplement of paper PMC7666118.
The other results are listed elsewhere or left out.

Amino acid sequences for entries named in this document (tags omitted). A change or cut given only in a name is not applied to a line headed by its entry.
UniProt P56556, whole entry: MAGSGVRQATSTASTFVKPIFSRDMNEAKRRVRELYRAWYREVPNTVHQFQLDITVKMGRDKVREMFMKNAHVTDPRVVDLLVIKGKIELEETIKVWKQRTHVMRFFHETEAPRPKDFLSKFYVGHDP
UniProt O43676, whole entry: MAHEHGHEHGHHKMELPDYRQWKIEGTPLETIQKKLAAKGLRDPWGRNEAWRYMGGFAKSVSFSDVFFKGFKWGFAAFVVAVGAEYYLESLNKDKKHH
UniProt Q9HAN9, whole entry: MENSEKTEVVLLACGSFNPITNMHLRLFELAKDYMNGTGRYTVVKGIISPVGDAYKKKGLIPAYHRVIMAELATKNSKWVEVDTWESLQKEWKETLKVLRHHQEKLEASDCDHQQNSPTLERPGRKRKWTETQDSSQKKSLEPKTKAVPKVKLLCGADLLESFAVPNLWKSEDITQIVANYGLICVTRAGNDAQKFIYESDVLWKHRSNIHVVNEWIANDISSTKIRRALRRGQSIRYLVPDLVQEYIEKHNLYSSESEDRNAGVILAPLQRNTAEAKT
UniProt P43490: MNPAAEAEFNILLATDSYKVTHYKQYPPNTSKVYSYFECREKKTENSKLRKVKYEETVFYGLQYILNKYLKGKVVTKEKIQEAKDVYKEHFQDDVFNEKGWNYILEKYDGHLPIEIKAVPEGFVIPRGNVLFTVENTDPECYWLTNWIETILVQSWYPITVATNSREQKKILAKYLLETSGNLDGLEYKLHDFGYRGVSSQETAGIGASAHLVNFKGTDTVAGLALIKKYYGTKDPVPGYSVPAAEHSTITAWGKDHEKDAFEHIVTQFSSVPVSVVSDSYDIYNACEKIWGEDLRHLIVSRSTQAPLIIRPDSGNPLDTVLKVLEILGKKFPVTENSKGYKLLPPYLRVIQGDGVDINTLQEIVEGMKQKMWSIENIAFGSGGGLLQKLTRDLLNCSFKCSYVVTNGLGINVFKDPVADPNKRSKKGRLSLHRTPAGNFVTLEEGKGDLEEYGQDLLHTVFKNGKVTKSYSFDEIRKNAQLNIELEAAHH
UniProt O75438, whole entry: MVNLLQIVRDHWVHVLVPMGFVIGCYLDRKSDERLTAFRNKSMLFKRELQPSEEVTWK
UniProt Q147X3: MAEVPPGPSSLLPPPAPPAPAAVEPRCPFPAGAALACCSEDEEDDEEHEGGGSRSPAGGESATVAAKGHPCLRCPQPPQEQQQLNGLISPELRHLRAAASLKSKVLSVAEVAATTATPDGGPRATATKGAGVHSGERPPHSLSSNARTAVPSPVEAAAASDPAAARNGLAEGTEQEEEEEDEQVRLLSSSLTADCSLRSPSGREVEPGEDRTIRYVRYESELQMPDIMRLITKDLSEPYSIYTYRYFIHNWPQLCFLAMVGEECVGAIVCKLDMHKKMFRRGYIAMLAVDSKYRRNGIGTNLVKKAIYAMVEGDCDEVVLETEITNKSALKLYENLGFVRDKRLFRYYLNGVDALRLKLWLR
UniProt O95544: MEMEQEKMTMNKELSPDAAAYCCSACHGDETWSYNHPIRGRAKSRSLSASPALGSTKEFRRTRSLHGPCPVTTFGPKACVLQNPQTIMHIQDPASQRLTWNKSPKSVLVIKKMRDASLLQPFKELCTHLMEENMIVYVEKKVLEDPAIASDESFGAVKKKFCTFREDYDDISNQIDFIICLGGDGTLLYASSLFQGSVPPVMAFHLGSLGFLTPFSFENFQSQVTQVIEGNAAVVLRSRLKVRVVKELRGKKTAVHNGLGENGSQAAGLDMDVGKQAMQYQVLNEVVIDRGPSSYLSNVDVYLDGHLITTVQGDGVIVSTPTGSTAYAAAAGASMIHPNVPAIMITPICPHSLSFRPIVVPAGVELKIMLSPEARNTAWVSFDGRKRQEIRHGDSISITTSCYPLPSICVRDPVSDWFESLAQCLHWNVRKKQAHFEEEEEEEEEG
UniProt P55786: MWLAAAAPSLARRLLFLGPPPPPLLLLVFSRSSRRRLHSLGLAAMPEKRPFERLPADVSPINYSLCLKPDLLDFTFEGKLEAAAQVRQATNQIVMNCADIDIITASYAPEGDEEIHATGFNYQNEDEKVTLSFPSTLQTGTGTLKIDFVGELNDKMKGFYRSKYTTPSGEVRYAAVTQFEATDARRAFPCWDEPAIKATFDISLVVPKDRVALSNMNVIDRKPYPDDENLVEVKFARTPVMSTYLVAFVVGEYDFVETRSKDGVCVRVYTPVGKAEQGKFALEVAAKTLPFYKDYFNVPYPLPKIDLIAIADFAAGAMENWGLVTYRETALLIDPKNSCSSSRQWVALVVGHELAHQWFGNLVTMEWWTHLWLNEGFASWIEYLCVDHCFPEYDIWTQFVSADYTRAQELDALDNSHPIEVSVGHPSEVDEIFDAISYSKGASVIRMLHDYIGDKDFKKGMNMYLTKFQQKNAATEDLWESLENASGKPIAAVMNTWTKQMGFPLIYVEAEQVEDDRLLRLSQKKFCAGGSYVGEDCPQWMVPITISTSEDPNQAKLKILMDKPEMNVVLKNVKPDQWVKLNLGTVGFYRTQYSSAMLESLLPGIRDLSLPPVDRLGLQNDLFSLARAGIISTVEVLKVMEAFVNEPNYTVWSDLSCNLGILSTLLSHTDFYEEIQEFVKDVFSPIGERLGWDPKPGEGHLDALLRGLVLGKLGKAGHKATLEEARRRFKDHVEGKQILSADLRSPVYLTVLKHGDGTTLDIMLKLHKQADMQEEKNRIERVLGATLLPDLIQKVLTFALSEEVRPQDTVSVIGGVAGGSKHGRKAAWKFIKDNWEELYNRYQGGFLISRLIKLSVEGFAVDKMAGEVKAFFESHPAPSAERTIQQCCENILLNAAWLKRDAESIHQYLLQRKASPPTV
UniProt Q86UT6, whole entry: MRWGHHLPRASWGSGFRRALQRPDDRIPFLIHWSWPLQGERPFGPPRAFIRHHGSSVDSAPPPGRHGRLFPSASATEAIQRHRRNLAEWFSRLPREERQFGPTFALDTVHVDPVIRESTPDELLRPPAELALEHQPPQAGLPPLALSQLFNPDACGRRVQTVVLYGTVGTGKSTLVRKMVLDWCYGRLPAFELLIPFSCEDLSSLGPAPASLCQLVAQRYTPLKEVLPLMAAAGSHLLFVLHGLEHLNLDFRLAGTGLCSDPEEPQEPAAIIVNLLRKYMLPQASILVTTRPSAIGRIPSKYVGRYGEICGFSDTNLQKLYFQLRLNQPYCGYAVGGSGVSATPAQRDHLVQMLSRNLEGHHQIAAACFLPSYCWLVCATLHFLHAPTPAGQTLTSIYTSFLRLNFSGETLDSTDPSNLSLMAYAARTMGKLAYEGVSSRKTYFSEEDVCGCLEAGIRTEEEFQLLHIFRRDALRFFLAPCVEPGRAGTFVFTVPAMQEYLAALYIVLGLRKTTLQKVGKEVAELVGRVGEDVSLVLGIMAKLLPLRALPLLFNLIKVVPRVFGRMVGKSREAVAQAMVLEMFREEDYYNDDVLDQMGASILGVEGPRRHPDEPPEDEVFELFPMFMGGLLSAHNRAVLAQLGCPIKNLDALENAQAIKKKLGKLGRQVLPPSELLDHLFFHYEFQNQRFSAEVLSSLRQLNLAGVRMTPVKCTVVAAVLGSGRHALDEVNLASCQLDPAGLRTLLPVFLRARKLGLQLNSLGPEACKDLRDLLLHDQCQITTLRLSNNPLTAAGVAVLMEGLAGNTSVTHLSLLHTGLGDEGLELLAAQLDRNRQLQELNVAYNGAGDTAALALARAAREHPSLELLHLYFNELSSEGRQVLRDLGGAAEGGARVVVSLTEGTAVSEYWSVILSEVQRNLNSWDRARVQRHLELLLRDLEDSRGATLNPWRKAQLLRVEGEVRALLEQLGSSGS
UniProt Q9GZT8: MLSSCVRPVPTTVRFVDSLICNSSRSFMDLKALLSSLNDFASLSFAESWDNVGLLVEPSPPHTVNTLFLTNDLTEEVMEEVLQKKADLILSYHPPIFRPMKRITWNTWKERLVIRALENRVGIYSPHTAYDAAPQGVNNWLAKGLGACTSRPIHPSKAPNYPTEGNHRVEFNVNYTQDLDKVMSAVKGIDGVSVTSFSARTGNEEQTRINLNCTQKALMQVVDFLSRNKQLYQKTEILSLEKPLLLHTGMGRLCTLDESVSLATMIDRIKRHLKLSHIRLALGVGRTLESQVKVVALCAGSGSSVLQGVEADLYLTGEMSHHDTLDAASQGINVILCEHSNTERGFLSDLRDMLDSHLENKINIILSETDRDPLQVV
UniProt P56278: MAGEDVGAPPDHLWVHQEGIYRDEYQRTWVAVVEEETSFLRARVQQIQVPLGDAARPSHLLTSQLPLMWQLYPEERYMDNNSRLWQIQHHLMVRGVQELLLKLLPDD
UniProt P82909: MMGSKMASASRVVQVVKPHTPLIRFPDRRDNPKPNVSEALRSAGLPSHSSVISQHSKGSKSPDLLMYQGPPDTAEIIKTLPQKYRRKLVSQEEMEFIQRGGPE
UniProt P06748, whole entry: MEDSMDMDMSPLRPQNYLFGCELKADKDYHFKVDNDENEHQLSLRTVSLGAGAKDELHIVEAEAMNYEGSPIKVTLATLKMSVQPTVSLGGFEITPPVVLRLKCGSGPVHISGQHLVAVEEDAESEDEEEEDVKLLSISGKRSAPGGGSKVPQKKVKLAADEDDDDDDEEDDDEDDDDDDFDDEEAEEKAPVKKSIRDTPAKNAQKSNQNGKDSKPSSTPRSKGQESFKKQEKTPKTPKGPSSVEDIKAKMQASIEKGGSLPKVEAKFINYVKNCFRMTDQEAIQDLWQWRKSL
UniProt Q9UDX5: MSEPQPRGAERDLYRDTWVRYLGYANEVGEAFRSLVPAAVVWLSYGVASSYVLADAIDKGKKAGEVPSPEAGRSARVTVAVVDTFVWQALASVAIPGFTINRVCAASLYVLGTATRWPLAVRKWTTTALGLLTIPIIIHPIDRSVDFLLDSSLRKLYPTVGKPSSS
UniProt Q9UMX5: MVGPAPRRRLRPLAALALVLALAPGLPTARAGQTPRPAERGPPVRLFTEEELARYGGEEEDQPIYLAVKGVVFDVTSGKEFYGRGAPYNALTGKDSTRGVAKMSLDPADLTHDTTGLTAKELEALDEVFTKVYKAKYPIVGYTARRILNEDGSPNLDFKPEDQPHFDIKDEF
UniProt P28331, whole entry: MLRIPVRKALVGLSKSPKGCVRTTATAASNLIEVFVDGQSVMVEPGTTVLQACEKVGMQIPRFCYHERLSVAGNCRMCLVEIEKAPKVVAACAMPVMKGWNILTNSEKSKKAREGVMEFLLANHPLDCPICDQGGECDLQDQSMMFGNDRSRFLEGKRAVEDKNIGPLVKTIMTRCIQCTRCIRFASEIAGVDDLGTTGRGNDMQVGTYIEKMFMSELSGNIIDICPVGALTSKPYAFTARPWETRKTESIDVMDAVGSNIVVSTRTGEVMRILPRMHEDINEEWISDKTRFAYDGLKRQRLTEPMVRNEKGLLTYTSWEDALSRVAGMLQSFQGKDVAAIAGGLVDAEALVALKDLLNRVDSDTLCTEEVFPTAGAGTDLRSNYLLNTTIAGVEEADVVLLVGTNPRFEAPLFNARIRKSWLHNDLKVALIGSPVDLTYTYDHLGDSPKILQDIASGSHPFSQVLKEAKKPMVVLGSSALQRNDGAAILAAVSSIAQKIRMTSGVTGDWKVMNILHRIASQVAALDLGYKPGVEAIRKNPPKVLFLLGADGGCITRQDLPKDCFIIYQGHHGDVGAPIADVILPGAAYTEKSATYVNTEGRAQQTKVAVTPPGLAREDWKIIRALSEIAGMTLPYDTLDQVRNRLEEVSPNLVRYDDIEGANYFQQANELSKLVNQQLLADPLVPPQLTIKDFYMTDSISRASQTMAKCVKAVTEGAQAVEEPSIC
UniProt P13056: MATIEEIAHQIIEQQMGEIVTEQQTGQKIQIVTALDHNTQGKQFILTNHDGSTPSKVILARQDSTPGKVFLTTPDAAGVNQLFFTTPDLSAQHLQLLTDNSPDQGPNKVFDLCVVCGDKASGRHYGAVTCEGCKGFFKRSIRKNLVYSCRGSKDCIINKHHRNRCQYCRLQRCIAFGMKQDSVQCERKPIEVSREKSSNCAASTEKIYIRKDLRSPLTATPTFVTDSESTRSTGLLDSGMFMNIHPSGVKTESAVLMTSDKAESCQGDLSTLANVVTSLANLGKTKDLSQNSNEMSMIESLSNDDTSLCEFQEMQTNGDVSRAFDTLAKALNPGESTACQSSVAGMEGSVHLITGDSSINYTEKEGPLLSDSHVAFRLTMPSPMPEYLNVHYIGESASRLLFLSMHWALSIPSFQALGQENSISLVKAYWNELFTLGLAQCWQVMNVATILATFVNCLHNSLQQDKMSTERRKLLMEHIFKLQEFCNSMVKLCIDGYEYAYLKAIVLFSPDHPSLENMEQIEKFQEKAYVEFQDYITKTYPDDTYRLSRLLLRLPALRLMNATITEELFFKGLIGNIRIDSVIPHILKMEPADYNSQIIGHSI
UniProt Q9UMY1: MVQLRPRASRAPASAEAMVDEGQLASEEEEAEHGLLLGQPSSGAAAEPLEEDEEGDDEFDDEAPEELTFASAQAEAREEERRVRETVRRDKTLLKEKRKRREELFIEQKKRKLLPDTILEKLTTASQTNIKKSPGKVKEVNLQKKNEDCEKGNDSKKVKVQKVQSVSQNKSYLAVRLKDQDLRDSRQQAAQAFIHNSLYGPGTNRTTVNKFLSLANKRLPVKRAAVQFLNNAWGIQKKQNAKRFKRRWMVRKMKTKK

Compound: COc1ccc(Cn2ccc3ccc(C(=O)NO)cc32)cc1
Assay: dose-dependent thermal stabilisation call (2D-TPP, DLPTP, 10% FDR) (binary (1 = stabilised)); higher = stabilised by the compound
Settings: system: HL-60 intact cells; concentration range 0.04-10 µM

Row | Target | dose-dependent thermal stabilisation call
1 | NDE1 (UniProt Q9NXR1) | inactive: 0
2 | NLE1 (UniProt Q9NVX2) | inactive: 0
3 | NDUFA6 (UniProt P56556) | inactive: 0
4 | NDUFB3 (UniProt O43676) | inactive: 0
5 | NMNAT1 (UniProt Q9HAN9) | inactive: 0
6 | NAMPT (UniProt P43490) | inactive: 0
7 | NDUFAB1 (UniProt O14561) | inactive: 0
8 | MTG1 (UniProt Q9BT17) | inactive: 0
9 | NDUFB1 (UniProt O75438) | inactive: 0
10 | NAT12 (UniProt Q147X3) | inactive: 0
11 | NOC2L (UniProt Q9Y3T9) | inactive: 0
12 | NADK (UniProt O95544) | inactive: 0
13 | NDUFV2 (UniProt P19404) | inactive: 0
14 | ND4 (UniProt P03905) | inactive: 0
15 | NPEPPS (UniProt P55786) | active: 1
16 | NLRX1 (UniProt Q86UT6) | inactive: 0
17 | NIF3L1 (UniProt Q9GZT8) | inactive: 0
18 | MTCP1 (UniProt P56278) | inactive: 0
19 | NCAPH2 (UniProt Q6IBW4) | inactive: 0

Row | Target | dose-dependent thermal stabilisation call
20 | MRPS36 (UniProt P82909) | inactive: 0
21 | MRPS9 (UniProt P82933) | inactive: 0
22 | NDC80 (UniProt O14777) | inactive: 0
23 | NPM1 (UniProt P06748) | inactive: 0
24 | MTMR2 (UniProt Q13614) | inactive: 0
25 | MYO1F (UniProt O00160) | inactive: 0
26 | NCOA6 (UniProt Q14686) | inactive: 0
27 | NCSTN (UniProt Q92542) | inactive: 0
28 | NPC1 (UniProt O15118) | inactive: 0
29 | NQO2 (UniProt P16083) | active: 1
30 | MYST2 (UniProt O95251) | inactive: 0
31 | MTP18 (UniProt Q9UDX5) | inactive: 0
32 | NENF (UniProt Q9UMX5) | inactive: 0
33 | NDUFS1 (UniProt P28331) | inactive: 0
34 | NR2C1 (UniProt P13056) | inactive: 0
35 | MXRA7 (UniProt P84157) | inactive: 0
36 | NOL7 (UniProt Q9UMY1) | inactive: 0
37 | NCAPD2 (UniProt Q15021) | inactive: 0
38 | MTMR10 (UniProt Q9NXD2) | inactive: 0

Some of the entries so far, as labelled records:
NPC1 (UniProt O15118)
  dose-dependent thermal stabilisation call: inactive: 0
NQO2 (UniProt P16083)
  dose-dependent thermal stabilisation call: active: 1
MYST2 (UniProt O95251)
  dose-dependent thermal stabilisation call: inactive: 0
